Measurements reported in PubChem BioAssay AID504764 (Drosophila RNAi Screening Center, 2011)
Screen: 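Knock-downs that raise or lower a Notch target reporter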 (primary screen). Cell system: Drosophila Kc167 cells. Reagent: long dsRNA against Drosophila genes. Duration: about 5 days (4 days dsRNA, then 24 h after transfection). Challenge: transfection of constitutively active membrane-tethered Notch lacking the extracellular domain, read 24 h later. Measurement: 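Light from a Notch-responsive E(spl)m3 luciferase reporter under active Notch, with control-promoter and no-Notch reporter wells to normalise; raw counts from paired wells a and b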. Reading the numbers: induced reporter light, run 1, well a and induced reporter light, run 1, well b: higher = more light from the Notch target reporter with active Notch; control promoter light, run 1, well a and control promoter light, run 1, well b: higher = more light from the viral control promoter (cell number, transfection, viability); uninduced reporter light, run 1, well a: higher = more light from the Notch target reporter without active Notch. Call rule: 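Hit if the duplicate-averaged log2 ratio of induced to control-promoter light gives a plate-wise z beyond ±2, or induced to uninduced beyond ±1.8; weak-control or discordant-duplicate wells dropped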. Meaning of the calls: active = modifier hit (raised or lowered Notch signal); inactive = not a hit.
In all, the deposit lists about 22,000 reagents; this is an unselected part of those with a known target gene and a result. Over the whole deposit, 403 (1.9%) got an active call. 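Unnormalised raw counts per well; ratio z-scores behind the hit calls and whether each hit raises or lowers signal are not deposited.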 Reagent sequences are not shown. Not given: the amount of reagent.

Target gene	dsRNA	induced reporter light, run 1, well a	induced reporter light, run 1, well b	control promoter light, run 1, well a	control promoter light, run 1, well b	uninduced reporter light, run 1, well a	activity call
Cadps	DRSC21057	84745	1.02e5	80340	96555	8790	inactive
Cadps	DRSC22200						inactive
SmydA-5	DRSC04867	1.43e5	1.26e5	1.35e5	1.24e5	9470	inactive
CG12842 (retired record)	DRSC06188	1.64e5	1.62e5	1.94e5	2.08e5	14478	inactive
ttk	DRSC14078	78740	98110	1.13e5	1.07e5	7365	inactive
ttk	DRSC17091	43220	49210	1.63e5	1.25e5	5845	active
crok	DRSC02593	1.41e5	1.41e5	1.43e5	1.50e5	12165	inactive
vir-1	DRSC02501	1.56e5	1.74e5	1.71e5	1.95e5	13980	inactive
vir-1	DRSC02863	83085	91055	1.21e5	1.24e5	7445	inactive
intr	DRSC14528	1.61e5	1.57e5	1.98e5	2.44e5	12295	inactive
CG34166	DRSC02482	1.86e5	1.62e5	2.44e5	2.36e5	14780	active
CG4630	DRSC06874	1.52e5	1.35e5	1.41e5	1.27e5	15470	inactive
Orcokinin	DRSC04202	1.55e5	1.46e5	1.42e5	1.33e5	11005	inactive
CG12182	DRSC08142	1.18e5	1.15e5	2.15e5	2.16e5	8900	inactive
CG6426	DRSC06985	1.24e5	82990	1.14e5	1.26e5	7220	inactive
CG17271	DRSC15210	1.96e5	1.70e5	2.06e5	2.22e5	13005	inactive
CG17271	DRSC22629						inactive
Or33c	DRSC03388	1.78e5	1.85e5	1.95e5	1.93e5	17080	inactive
CG3008	DRSC00560	1.38e5	1.10e5	1.67e5	1.34e5	8878	inactive
Cht6	DRSC18001	1.12e5	1.23e5	2.13e5	2.41e5	9060	inactive
Cht6	DRSC18002	32260	26185	50425	47680	4950	inactive
Cht6	DRSC18253	1.19e5	1.50e5	2.75e5	2.43e5	10745	inactive
Snx16	DRSC06984	79030	1.03e5	1.16e5	1.32e5	9360	inactive
CAH7	DRSC15524	30860	29550	37585	26145	1905	inactive
pall	DRSC10364	1.20e5	1.08e5	94945	57030	10040	inactive
inaF-B	DRSC18903	88465	70035	76600	60425	5085	inactive
Naxd	DRSC09722	1.20e5	1.36e5	71845	80435	8385	inactive
GILT3	DRSC14672	2.09e5	2.35e5	2.41e5	2.50e5	19005	inactive
CG14835	DRSC10205	1.47e5	1.48e5	1.84e5	1.61e5	6990	inactive
Ttc7	DRSC04836	1.83e5	1.75e5	1.86e5	2.02e5	14340	inactive
CG1662	DRSC19754	1.96e5	1.61e5	1.91e5	2.06e5	11915	inactive
CG15765	DRSC18071	28860	25615	24020	26540	7538	inactive
CG4872	DRSC19921	1.12e5	1.32e5	1.09e5	46910	9565	inactive
CG7694	DRSC16288	1.81e5	2.00e5	1.86e5	1.71e5	12165	inactive
CG15368	DRSC18040	40365	34740	48580	56175	3660	inactive
Mettl3	DRSC15921	1.88e5	1.81e5	2.09e5	2.21e5	12860	inactive
CSN7	DRSC06807	1.52e5	1.34e5	1.21e5	1.28e5	20645	active
CSN7	DRSC06808	1.15e5	1.29e5	1.03e5	1.27e5	15335	inactive
Gart	DRSC03481	1.16e5	67775	87855	1.03e5	5600	inactive
CG13060	DRSC09943	1.78e5	1.42e5	2.01e5	2.29e5	6605	inactive
Cdlc2	DRSC00743	1.08e5	88320	86320	83275	6450	inactive
CG7841	DRSC10922	1.91e5	1.37e5	2.51e5	2.41e5	11355	inactive
JMJD7	DRSC09703	2.74e5	2.50e5	3.19e5	3.36e5	14485	inactive
CG16758	DRSC07984	1.77e5	2.02e5	2.27e5	2.39e5	11350	inactive
CG16758	DRSC08492	1.11e5	93490	2.02e5	2.00e5	7265	inactive
CG13408	DRSC13534	45630	42230	65985	59885	8090	inactive
CG13408	DRSC14584	1.75e5	1.37e5	1.93e5	2.03e5	10300	inactive
CG6550	DRSC07001	96595	1.10e5	1.87e5	2.37e5	11495	inactive
retm	DRSC03252	1.68e5	1.84e5	1.70e5	1.38e5	15905	inactive
Hr83	DRSC12521	64015	58060	53190	46205	4855	inactive
